# From article PMC5656322, “BAK1 is involved in AtRALF1-induced inhibition of root cell expansion” (PLoS Genetics, 2017)
# The chains behind the UniProt entries cited, without tags or fusion partners. Residues count along the entry.
# UniProt Q9FL28, residues 24-806: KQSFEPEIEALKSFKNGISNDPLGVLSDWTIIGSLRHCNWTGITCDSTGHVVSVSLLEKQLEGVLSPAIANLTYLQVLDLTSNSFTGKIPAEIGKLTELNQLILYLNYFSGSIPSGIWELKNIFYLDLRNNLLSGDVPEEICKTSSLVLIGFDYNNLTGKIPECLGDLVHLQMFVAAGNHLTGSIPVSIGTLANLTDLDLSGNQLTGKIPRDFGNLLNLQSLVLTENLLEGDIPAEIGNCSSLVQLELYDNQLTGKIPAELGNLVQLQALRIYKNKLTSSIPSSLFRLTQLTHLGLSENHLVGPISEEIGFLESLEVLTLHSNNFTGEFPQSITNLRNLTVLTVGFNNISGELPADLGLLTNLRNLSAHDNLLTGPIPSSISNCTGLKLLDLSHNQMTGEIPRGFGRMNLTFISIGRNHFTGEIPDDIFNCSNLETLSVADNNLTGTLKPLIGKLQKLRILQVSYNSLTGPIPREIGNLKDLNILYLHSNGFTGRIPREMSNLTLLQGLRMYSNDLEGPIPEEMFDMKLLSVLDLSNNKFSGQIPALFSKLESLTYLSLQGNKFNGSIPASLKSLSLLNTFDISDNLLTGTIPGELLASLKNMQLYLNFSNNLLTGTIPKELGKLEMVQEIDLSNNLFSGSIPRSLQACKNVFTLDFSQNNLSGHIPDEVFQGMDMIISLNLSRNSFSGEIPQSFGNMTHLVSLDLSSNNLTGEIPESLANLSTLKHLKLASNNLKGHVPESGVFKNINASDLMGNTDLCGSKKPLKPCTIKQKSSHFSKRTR
# Results are given in words; binding and its absence hold for the method and conditions named. For part of these data: Binding seen in cells or lysates may run through a third protein. Some entries that bind do so weakly or less than the wild type. Where a sequence is shown, tags or fusion partners need not be part of it.
# T1: AtRALF1 mature peptide fused to the GAL4 DNA-binding domain (AtRALF1-pGBKT7) (Arabidopsis thaliana) (UniProt Q9SRY3)
# T1 sequence: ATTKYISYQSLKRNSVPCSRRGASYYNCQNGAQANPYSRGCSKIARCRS
# T2: Entire BAK1 protein fused to GFP (BAK1-GFP) (Arabidopsis thaliana) (UniProt Q94F62)
# T2 sequence: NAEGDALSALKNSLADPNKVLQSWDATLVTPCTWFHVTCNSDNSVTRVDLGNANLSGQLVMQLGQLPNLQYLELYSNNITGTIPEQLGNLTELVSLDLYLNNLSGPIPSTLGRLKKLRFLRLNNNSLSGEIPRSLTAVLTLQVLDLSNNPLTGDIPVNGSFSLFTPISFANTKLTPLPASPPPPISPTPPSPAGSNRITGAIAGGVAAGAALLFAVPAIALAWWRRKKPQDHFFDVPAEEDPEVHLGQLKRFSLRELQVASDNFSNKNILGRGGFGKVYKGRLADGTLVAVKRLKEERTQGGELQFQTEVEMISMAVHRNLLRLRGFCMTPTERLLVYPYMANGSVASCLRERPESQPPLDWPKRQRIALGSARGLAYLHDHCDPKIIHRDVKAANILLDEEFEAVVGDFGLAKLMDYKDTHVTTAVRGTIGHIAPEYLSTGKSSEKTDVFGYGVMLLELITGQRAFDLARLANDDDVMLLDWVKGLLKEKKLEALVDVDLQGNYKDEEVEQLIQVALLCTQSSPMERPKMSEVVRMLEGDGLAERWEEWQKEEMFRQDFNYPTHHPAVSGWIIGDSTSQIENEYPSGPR
# Columns and labels:
# [1] = biological target: T1, AtRALF1 mature peptide fused to the GAL4 DNA-binding domain (AtRALF1-pGBKT7) (Arabidopsis thaliana); assay: two-hybrid; RALF peptide fused to the GAL4 DNA-binding domain (pGBKT7) as bait, extracellular domains or truncations fused to the GAL4 activation domain (pGADT7); yeast AH109; growth on synthetic complete medium lacking leucine, tryptophan and histidine
# [2] = biological target: T2, Entire BAK1 protein fused to GFP (BAK1-GFP) (Arabidopsis thaliana); assay: co-IP; microsomal fraction of N. benthamiana leaves expressing BAK1-GFP (0.5% Triton-X) incubated with 600 nM peptide for 1 h at 4 °C; anti-GFP antibody and protein A Sepharose beads; only the binder purified
molecule,measurement,setting,value
"Extracellular domain of FLS2 fused to the GAL4 activation domain (FLS2-ECD, pGADT7) (from UniProt Q9FL28 24-806) (domain or fragment)",binding,[1],no binding
"ATTKYISYQSLKRNSVPCSRRGASYYNCQNGAQANPYSRGCSKIARCRS (peptide, UniProt Q9SRY3 72-120) [Recombinant His-tagged AtRALF1]",binding,[2],binds
"Extracellular domain of BAK7 fused to the GAL4 activation domain (BAK7-ECD, pGADT7) (domain or fragment, UniProt Q9SKG5 34-234) DALTQLKNSLSSGDPANNVLQSWDATLVTPCTWFHVTCNPENKVTRVDLGNAKLSGKLVPELGQLLNLQYLELYSNNITGEIPEELGDLVELVSLDLYANSISGPIPSSLGKLGKLRFLRLNNNSLSGEIPMTLTSVQLQVLDISNNRLSGDIPVNGSFSLFTPISFANNSLTDLPEPPPTSTSPTPPPPSGGQMTAAIAG",binding,[1],no binding
